Test results from patent publication US20210188980A1.
These are yes or no findings as the source states them, for the method shown. Some results given as binding are weak or reduced against the parent protein; the word gives no strength.

Experiments:
[1] = target: human LAG-3 expressed on cells (human) (UniProt P18627); assay: flow cytometry, biotinylated antibody + FITC-streptavidin, CD3 T cells; panel 'PBMC stimulation for 72h, PD1 antibody treated group' (cells pre-treated with unlabelled HumAb713-7)
[2] = target: human LAG-3 expressed on cells (human) (UniProt P18627); assay: flow cytometry, biotinylated antibody + FITC-streptavidin, CD3 T cells; panel 'PBMC stimulation for 72h, Lag3 antibody treated group' (cells pre-treated with unlabelled HumAb747V-67)
[3] = target: human LAG-3 expressed on cells (human) (UniProt P18627); assay: flow cytometry, biotinylated antibody + FITC-streptavidin, CD3 T cells; panel 'PBMC stimulation for 72h, untreated group' (anti-CD3 plus anti-CD28)
[4] = target: T1, biotinylated LAG-3 (AcroBiosystem, Cat No. H82E5) (human) (UniProt P18627); assay: competition ELISA (RBA assay): FGL1 coated on the plate, 1 ug/ml biotinylated LAG-3 added with the antibody; blocked ligand FGL1
T1 sequence (biotinylated, looked up): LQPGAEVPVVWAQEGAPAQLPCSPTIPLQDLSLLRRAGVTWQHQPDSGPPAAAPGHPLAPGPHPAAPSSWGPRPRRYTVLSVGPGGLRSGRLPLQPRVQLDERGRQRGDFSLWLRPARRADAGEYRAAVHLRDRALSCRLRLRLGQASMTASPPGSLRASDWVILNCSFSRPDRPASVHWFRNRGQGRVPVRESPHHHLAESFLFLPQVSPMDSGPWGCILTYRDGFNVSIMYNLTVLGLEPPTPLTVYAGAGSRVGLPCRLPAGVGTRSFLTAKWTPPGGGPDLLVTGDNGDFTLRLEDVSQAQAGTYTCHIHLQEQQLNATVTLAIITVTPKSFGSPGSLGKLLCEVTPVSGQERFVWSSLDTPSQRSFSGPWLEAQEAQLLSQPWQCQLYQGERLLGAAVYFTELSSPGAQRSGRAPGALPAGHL

binding [1]: binds
binding [2]: binds
binding [3]: binds
binding [4]: binds
B1: HumAb747V-67 (antibody, human IgG1, V domains shown)
VH: EVQLVQSGAEVKKPGATVKLSCTASGFNIKDDYMHWVKQRPEQGLDWIGWIVPENGNTVYASKFQGKATITADTSTNTAYLELSSLRSEDTAVYYCTVYGDYWGQGTTVTVSS
VL: DIQMTQSPSSLSASVGDRVTITCRASQEISGYLSWLQQKPGGAIKRLIYAASALDSGVPSRFSGSRSGSDYTLTISSLQPEDFADYYCLQYASYPLTFGQGTKLELK
